# Primary screen of a compound library

Amino acid sequences for entries named in this document (tags omitted). Residues count along the entry.
UniProt P9WNZ1, whole entry: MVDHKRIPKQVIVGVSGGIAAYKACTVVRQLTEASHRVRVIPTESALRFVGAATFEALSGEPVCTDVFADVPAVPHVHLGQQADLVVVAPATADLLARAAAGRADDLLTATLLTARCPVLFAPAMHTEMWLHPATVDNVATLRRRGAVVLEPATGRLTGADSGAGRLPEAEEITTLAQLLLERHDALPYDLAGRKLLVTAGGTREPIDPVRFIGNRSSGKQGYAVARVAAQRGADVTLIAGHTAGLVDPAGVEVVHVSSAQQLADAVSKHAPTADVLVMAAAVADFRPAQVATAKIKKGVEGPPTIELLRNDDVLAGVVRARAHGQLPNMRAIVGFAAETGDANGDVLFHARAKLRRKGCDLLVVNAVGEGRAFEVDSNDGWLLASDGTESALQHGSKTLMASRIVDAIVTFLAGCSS
UniProt I6X8D2, whole entry: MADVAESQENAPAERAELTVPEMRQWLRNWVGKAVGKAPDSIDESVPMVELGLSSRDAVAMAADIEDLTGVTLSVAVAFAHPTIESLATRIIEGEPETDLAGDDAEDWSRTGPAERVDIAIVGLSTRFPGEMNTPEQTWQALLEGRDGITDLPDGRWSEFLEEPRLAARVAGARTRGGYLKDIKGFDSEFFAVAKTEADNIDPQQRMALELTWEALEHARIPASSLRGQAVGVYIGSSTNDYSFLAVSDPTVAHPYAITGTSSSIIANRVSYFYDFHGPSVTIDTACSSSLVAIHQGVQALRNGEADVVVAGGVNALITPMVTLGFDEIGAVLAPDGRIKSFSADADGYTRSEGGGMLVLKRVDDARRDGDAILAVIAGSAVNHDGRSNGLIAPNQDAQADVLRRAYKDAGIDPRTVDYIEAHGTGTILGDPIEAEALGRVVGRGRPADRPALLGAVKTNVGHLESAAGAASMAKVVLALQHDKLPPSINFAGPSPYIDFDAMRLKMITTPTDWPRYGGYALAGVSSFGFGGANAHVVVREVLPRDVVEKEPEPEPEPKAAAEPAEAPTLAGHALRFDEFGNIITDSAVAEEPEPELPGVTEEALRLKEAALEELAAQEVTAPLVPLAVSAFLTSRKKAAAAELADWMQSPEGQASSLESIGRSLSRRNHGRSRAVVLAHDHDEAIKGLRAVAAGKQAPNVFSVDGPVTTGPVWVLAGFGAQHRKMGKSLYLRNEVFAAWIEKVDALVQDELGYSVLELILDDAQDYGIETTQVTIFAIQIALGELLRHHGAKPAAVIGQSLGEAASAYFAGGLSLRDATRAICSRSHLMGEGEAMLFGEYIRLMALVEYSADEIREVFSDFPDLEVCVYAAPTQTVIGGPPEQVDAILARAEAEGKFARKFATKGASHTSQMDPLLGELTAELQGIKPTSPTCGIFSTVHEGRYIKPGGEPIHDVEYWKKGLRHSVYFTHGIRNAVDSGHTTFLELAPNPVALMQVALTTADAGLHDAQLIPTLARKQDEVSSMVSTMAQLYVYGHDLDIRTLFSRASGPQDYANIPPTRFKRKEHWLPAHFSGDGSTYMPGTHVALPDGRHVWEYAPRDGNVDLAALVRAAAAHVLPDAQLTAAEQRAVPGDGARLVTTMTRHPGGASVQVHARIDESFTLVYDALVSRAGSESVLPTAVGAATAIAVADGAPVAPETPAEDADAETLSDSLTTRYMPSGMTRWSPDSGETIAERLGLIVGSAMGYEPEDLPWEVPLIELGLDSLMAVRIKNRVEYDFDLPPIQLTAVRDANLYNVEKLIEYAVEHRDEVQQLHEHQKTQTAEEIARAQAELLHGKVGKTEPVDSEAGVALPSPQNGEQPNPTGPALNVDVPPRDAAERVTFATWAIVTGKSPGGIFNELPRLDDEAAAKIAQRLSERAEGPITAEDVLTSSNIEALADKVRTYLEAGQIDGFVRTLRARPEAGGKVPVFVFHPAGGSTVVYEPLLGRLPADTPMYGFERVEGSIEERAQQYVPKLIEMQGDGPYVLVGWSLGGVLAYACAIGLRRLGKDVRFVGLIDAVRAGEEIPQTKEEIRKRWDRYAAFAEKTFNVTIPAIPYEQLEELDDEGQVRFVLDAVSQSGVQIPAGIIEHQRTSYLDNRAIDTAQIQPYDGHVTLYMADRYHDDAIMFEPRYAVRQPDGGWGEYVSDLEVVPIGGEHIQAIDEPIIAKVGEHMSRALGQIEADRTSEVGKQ
UniProt P9WPC5, whole entry: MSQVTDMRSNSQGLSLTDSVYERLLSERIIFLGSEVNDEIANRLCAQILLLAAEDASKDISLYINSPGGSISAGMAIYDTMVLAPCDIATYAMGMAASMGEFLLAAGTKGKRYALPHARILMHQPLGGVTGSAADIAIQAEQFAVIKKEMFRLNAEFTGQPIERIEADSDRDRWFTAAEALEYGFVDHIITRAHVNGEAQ
UniProt P9WPC3, whole entry partner: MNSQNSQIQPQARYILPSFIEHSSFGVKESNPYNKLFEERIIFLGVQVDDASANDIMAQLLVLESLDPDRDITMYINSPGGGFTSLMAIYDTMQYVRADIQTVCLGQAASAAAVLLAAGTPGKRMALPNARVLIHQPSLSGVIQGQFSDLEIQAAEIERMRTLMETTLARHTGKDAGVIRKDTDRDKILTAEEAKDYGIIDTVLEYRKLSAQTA
UniProt Q4DA54, 1-478: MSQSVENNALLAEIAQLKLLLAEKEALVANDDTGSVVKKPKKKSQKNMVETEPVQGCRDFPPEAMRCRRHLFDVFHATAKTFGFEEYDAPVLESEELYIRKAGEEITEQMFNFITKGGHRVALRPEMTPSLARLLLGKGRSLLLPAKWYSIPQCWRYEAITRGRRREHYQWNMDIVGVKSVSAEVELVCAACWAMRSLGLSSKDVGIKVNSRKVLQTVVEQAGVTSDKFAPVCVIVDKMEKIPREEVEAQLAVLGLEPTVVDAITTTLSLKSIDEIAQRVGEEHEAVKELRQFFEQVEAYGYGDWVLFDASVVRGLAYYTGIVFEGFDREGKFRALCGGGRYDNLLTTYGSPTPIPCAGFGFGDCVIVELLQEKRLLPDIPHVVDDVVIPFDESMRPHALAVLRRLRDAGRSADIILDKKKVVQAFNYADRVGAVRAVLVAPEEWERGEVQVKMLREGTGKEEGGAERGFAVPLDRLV

The values are deposited in ChEMBL (CHEMBL3988442, “University of Dundee, Small-Polar-MMV Screening Library” (2021)).

The filed quantity is “Percent Effect” (%). The record does not define 0% and 100%; most values in the screen are far below 50% and negative numbers occur (in some assays of this library far below -100). The compounds are a random part of those screened. Two or more numbers in one place are separate tests of the same structure; such repeats can differ widely. A dash means the value is not listed here; it may have been measured.

CoaBC: 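Enzyme assay of CoaBC with a phosphate dye (Biomol Green) read at 650 nm. Target: Coenzyme A biosynthesis protein CoaBC, Mycobacterium tuberculosis (UniProt P9WNZ1). Tested at 30 µM. Direction is inferred from only a few compounds that gave an IC50; most scored high, so higher reads as stronger inhibition. Most strong results did not repeat in a second test. About 67,000 compounds were tested under these conditions; 0.06% (about 40) showed 50% or more at least once.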
Leishmania in macrophages: 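Cell assay of Leishmania donovani living inside macrophages; the read-out is not stated. Concentration: 30 µM. The record gives no direction; compounds that gave an IC50 in retests scored well above the rest, so higher reads as stronger inhibition. Size under these conditions: about 69,000 compounds, about 1,000 of them at 50% or above in at least one test.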
Pks13 thioesterase: 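Enzyme assay of the thioesterase domain of polyketide synthase 13; the read-out is not stated. Target: Polyketide synthase Pks13, Mycobacterium tuberculosis (UniProt I6X8D2). Tested at 30 µM. Higher reads as stronger inhibition (inferred from which compounds were picked for retests). About 67,000 compounds were tested under these conditions; 0.46% (about 300) showed 50% or more at least once.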
ClpP1P2: 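ClpP1P2, Mycobacterium tuberculosis (UniProt P9WPC5 and UniProt P9WPC3). Protease assay of ClpP1P2, read by the AMC dye that it sets free. Concentration: 50 µM. Higher reads as stronger inhibition, judged from the few compounds that gave an IC50. Most other retested compounds had strongly negative values. About 69,000 compounds were tested under these conditions; 0.015% (about 10) showed 50% or more at least once.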
TcHisRS: 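Enzyme assay of histidyl-tRNA synthetase; the read-out is not stated. Target: Histidine-tRNA ligase, Trypanosoma cruzi CL Brener (UniProt Q4DA54). Compounds at 30 µM. Higher reads as stronger inhibition (inferred: compounds with an IC50 in retests scored well above the rest). About 69,000 compounds were tested under these conditions; 0.045% (about 31) showed 50% or more at least once.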

SMILES | CoaBC | Leishmania in macrophages | Pks13 thioesterase | ClpP1P2 | TcHisRS
O=C(Nc1cnn(Cc2ccc(Cl)cc2)c1)N1CCCC1CO (stereo not shown) | 1.402% | 10.74% | -15.93% | -10.01% | 1.327%
Nc1nccnc1C(=O)N1CCN(CCOc2ccccc2)CC1 | 11.69% | -8.889% | -7.952% | -1.751% | -0.8403%
Cc1nc(C)n(CC2CCCN2Cc2nc(C)c3ccccc3n2)n1 (stereo not shown) | 10.31% | 40.97% | -6.726% | -14.39% | 49.58%
O=C(O)C(F)(F)F.[H][C@@]12COC[C@]1([H])[C@H](NC(=O)C1CCC1)CN2Cc1ccccn1 | - | 12.61% & 1.008% | - | - | -
CN(C)c1cc(CNC(=O)c2n[nH]c(=O)c3ccccc23)ccn1 | 1.305% | 15.07% | -5.806% | -18.75% | 6.706%
CCN1CCCC1CN(Cc1cc[nH]n1)CC1CCN(CCOC)CC1 (stereo not shown) | 3.186% | 20.14% | -6.078% | -4.39% | 2.381%
CN(C)C(=O)CN1CCOCC2(CCN(c3ncc(F)cn3)CC2)C1.O=C(O)C(F)(F)F | - | 0.7673% | - | - | -
CCC[C@@H]1CN(C(=O)c2conc2-c2ccccc2)C[C@H]1N(C)C | -10.77% | -12.39% | -15.33% | -12.51% | 5.155%
CCc1ncc(C(=O)NCCNc2ncnc3sccc23)s1 | 10.37% | 26.76% | -25.14% | -5.11% | 17.47%
Cc1cnc(CN(C)C2CCCN(c3cccnn3)C2)cn1 (stereo not shown) | -0.6017% | 12.17% | 6.704% | -2.559% | -23.62%
CCc1nc(CN2CCCN(C(=O)COC(C)C)CC2)cs1 | 3.579% | -2.992% | -10.25% | -3.077% | 3.333%
Cc1ccc(-c2nc(CC(=O)N3CCCC(NC(=O)C(C)C)C3)cs2)o1 (stereo not shown) | -2.823% | 17.33% | -4.923% | -0.6996% | 9.497%
CN(Cc1cnc(N)nc1)C(=O)C1CCN(C(=O)C2CCCC2)CC1 | -1.106% | 18.54% | 2.466% | -5.828% | 10.71%
CCn1cc(NC(=O)NCC(c2cccc(F)c2)N(C)C)cn1 (stereo not shown) | -2.128% | 26.1% | -1.77% | 15.4% | 2.662%
Cn1cc(CN2CCC3(CC(=O)N(c4ccc5c(c4)OCO5)C3)C2)cn1.O=C(O)C(F)(F)F (stereo not shown) | - | 31.43% | - | - | -
CC(=O)N1CCN(CCNS(=O)(=O)c2ccc(C)c(F)c2)CC1 | 4.993% | 8.834% | -11.75% | 0.9103% | -1.087%
N#CCc1ccc(OCC(=O)NS(=O)(=O)c2ccc(Cl)s2)cc1 | 2.917% | -26.92% | -14.27% | -5.749% | -3.03%
Cc1nc(CN2C(=O)COC3(CCN(C)CC3)C2C)cs1 (stereo not shown) | 5.977% | - | 5.984% | 2.156% | 14.07%
[H][C@@]12CS(=O)(=O)C[C@]1([H])N(C(=O)Cc1ccc(F)c(C)c1)CCN2CC1CC1 | - | -14.91% | - | - | -
COCCC(=O)N1CCc2cc(Cl)cc(Cl)c2C1 | -7.727% | 19.27% | - | -8.562% | 0.8368%
CCCc1nc(C)c(C(=O)NCCN2CCN(CC)CC2)s1 | -1.581% | 15.67% | -1.577% | -2.316% | 2.662%
O=C(NCc1cccnc1)NCC(O)c1ccccc1C(F)(F)F (stereo not shown) | 0.9756% | -15.68% | -7.679% | -5.392% | 5.195%
CC1c2ncc(CNC(=O)C3CC3)n2CCN1Cc1ccccn1.O=C(O)C(F)(F)F.O=C(O)C(F)(F)F (stereo not shown) | - | -5.431% | - | - | -
CCS(=O)(=O)N1CCC2(CCCN(Cc3cc(OC)ccc3F)C2)C1 (stereo not shown) | -10.97% | 23.62% | -3.181% | 6.098% | 8.13%
CN1CCCC2(CCN(C(=O)Cn3ncc4ccccc4c3=O)C2)C1=O (stereo not shown) | -0.8505% | -13.05% | -0.8824% | 13.38% | 2.97%
COCCCN(Cc1ccncc1)c1ncc(C#N)cc1Cl | 4.143% | 5.305% | -4.877% | -7.325% | -14.58%
[H][C@@]12CO[C@@H](CNS(C)(=O)=O)[C@]1([H])CCN(c1cccc(C)n1)C2 | - | 7.252% | - | - | -
CCc1nc2n(n1)CC(NCc1cc(OC)c3c(c1)OCCO3)CC2 (stereo not shown) | 1.195% | 22.76% | -21.66% | -13.71% | 5.143%
CCc1ncc(C(=O)N2CCN(c3cnn(C)c(=O)c3)CC2)cn1 | 0.2439% | 30.05% | -12.87% | -26.19% | -0.9804%
CCN(CC)c1ncnc2c1CCN(CC1CCOCC1)CC2 | 5.562% | - | -6.977% | -2.31% | 10.2%
COc1ccccc1Oc1ncccc1CNC(=O)[C@H](C)O | 1.775% | 2.458% | -32.94% | 5.762% | 1.058%
CN(C)CCO[C@H]1C[C@@H](O)C12CCN(c1cnccn1)CC2 | -31.32% | 12.54% | -15.93% | -4.225% | 0%
Cc1ccc(NC2CCN(C(=O)c3cnn(C(C)(C)C)c3)CC2)nn1 | 4.301% | 19.26% | 3.523% | -9.006% | 3.429%
NC(=O)COc1ccc(C(=O)N2CCCC(n3ccnc3)C2)cc1 (stereo not shown) | 1.096% | 30.57% | -12.41% | -8.809% | 4.651%

Repeated from the top, 3 entries:

SMILES,CoaBC,Leishmania in macrophages,Pks13 thioesterase,ClpP1P2,TcHisRS
O=C(Nc1cnn(Cc2ccc(Cl)cc2)c1)N1CCCC1CO (stereo not shown),1.402%,10.74%,-15.93%,-10.01%,1.327%
Nc1nccnc1C(=O)N1CCN(CCOc2ccccc2)CC1,11.69%,-8.889%,-7.952%,-1.751%,-0.8403%
Cc1nc(C)n(CC2CCCN2Cc2nc(C)c3ccccc3n2)n1 (stereo not shown),10.31%,40.97%,-6.726%,-14.39%,49.58%